Data source: PubChem BioAssay AID1259425 (University of Nebraska Medical Center, 2018)
Screen: 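Seek colon cancer weak points whose silencing resembles KSR1 loss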 (primary screen). System: HCT116 human colon cancer cells. Knock-down reagent: siRNA pool against human genes, 50 nM siRNA. Measured: 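mRNA of six signature genes measured together by branched-DNA assay after 50 nM siRNA pool, blank removed, divided by geometric mean of two housekeeping genes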. Reading the numbers: BNIP3L mRNA: higher = more BNIP3L transcript after knockdown.
The deposit covers about 14,000 reagents; shown is a random part of them. Not all columns of the deposit are shown. Not stated in the record: the time to read-out.

ATF1
- BNIP3L mRNA, set 1: 0.121

SDSL
- BNIP3L mRNA, set 1: 0.111

ORAI1
- BNIP3L mRNA, set 1: 0.417

HSD3B2
- BNIP3L mRNA, set 1: 0.145

DGKE
- BNIP3L mRNA, set 1: 0.15

MYH16
- BNIP3L mRNA, set 1: 1.68

HLA-DPB2
- BNIP3L mRNA, set 1: 0.0556

DPP8
- BNIP3L mRNA, set 1: 0.0964

NFATC1
- BNIP3L mRNA, set 1: 0.0755

PIGR
- BNIP3L mRNA, set 1: 0.0941

PRAM1
- BNIP3L mRNA, set 1: 0.182

ITM2C
- BNIP3L mRNA, set 1: 0.109
